Test results as given in PubChem BioAssay AID1259415 (National Center for Advancing Translational Sciences (NCATS), 2018).
“And” between values parts separate entries of the source, which are not always exact repeats. Equal values may be shown once. Among all 410,000 compounds or so, about 18,000 (4.4%) were called active. This list was built around the results that the source calls inconclusive (neither active nor inactive); the mix of calls is not that of the screen. No stated cut-off is given here; in the data, active means activity change below about -60%; inconclusive means no clear call, values can overlap the other calls; inactive means above about -39%.

assay: qHTS Assay for inhibitors of the human cytomegalovirus (HCMV); details: HFF cells, HCMV-luciferase reporter, 72 h; at 57.5 µM; active compounds read low
Summary of the method: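 Inhibition of viral replication was scored as loss of reporter luminescence in HFFs infected with HCMV-luciferase (MOI 1 PFU/cell) for 72 h; compounds tested at 2 doses, normalized to buffer and Salinomycin controls.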
On the % scale 0 is the no-effect control and ±100 the full control effect.

| Structure (SMILES) | activity change, negative = inhibition |
| --- | --- |
| CCCCNCC1C(Oc2ccc(Cl)cc2)C(=O)N1c1ccccc1C (stereo not given) | active: -78.6% |
| S=C(NCc1cccs1)Nc1cccc(Cl)c1Cl | active: -79.4% |
| O=C(Nc1cccc(NC(=O)c2ccco2)c1)c1ccc2c(c1)OCO2 | inactive: 0.933% |
| CCOc1cccc2sc(N(CCN(C)C)C(=O)c3ccc(Br)s3)nc12 | inconclusive: -43% |
| Cc1ccccc1CSc1nc2cccnc2n1Cc1ccc(C(=O)NCCc2cccs2)cc1 | inactive: 94.2% |
| C=CCOc1ccc(C2C(C(=O)c3ccco3)=C(O)C(=O)N2c2nnc(C)s2)cc1 (stereo not given) | inactive: -31.1% |
| CCC(=O)Nc1ccc(C(=O)CSc2nc3ccccc3[nH]2)cc1 | inconclusive: -42.4% |
| O=C(O)c1ccc(NC2=C/C(=N/S(=O)(=O)c3ccccc3)c3ccccc3C2=O)cc1 | active: -101% |
| O=C(Nc1cccnc1)C12CC3CC(CC(C3)C1)C2 | active: -63.7% |
| COC(=O)c1ccc(CC(=O)c2c(C)cc(O)cc2O)o1 | inconclusive: -55.3% |
| CN(C)CCCNC(=O)C[C@H]1C[C@H](C(=O)N2CCCCC2)[C@@]2(CCc3ccccc3)c3[nH]c4cc(-c5ccco5)ccc4c3CCN2C1=O | inconclusive: -43.5% |
| CC(=O)c1cccc(NC(=O)c2cc3c(s2)-c2c(C)cccc2OC3)c1 | inconclusive: -50.5% |
| O=C1NC2(CCCCCC2)N=C1c1ccc(F)cc1 | inactive: 69.9% |
| COc1ccccc1NC(=O)CSc1sc2c(O)cc(=O)[nH]c2c1C#N | inactive: 40.5% |
| Cc1cc(C)cc(C(=O)N(NC(=O)Nc2ccc(Cl)cc2)C(C)(C)C)c1 | inconclusive: -55.5% |
| CCN(Cc1ccccc1)S(=O)(=O)c1ccc(C(=O)N2CCN(c3nc4ccccc4s3)CC2)cc1 | active: -66.5% |
| CC1CCc2c(sc(NC(=O)c3cc4nc(-c5ccc(Cl)cc5)cc(C(F)(F)F)n4n3)c2C#N)C1 (stereo not given) | inactive: -19.5% |
| CNC(=O)c1cccc(NC(=O)c2ccccc2OCc2ccccc2)c1 | inactive: 28.6% |
| CC(C)(CO)Nc1ncnc2onc(-c3ccc(F)cc3)c12 | inconclusive: -40.5% |
| CC(=O)Nc1ccc(S(=O)(=O)NC2CC(=O)N(c3ccc4c(c3)OCCO4)C2)cc1 (stereo not given) | inactive: -18.5% |
| COc1cccc(CNC(=S)Nc2cc(C)ccc2C)c1 | inconclusive: -54.8% |
| COCCn1c(C)cc(C(=O)COc2cccnc2[N+](=O)[O-])c1C | active: -84.4% |

Retrieved by structure from above (4):

| Structure (SMILES) | activity change, negative = inhibition |
| --- | --- |
| CCCCNCC1C(Oc2ccc(Cl)cc2)C(=O)N1c1ccccc1C (stereo not given) | active: -78.6% |
| CCC(=O)Nc1ccc(C(=O)CSc2nc3ccccc3[nH]2)cc1 | inconclusive: -42.4% |
| S=C(NCc1cccs1)Nc1cccc(Cl)c1Cl | active: -79.4% |
| COCCn1c(C)cc(C(=O)COc2cccnc2[N+](=O)[O-])c1C | active: -84.4% |

Continuation:

| Structure (SMILES) | activity change, negative = inhibition |
| --- | --- |
| Cn1c(=O)c2c(ncn2Cc2ccc(Cl)c(Cl)c2)n(C)c1=O | active: -70.4% |
| Cc1cc(C)c(C#N)c(SCc2ccc(F)cc2)n1 | inconclusive: -49.5% |
| Cc1ccccc1Oc1cc(NC(=O)CCCn2nc(C)c([N+](=O)[O-])c2C)cc([N+](=O)[O-])c1 | inconclusive: -54% |
| CCC(=O)N[C@@H]1C=C[C@@H](CC(=O)NCc2ccccc2F)O[C@@H]1CO | inconclusive: -44.8% |
| COc1ccc(CC(=O)Nc2cccc(/C(C)=N/NC(=O)C3(C)CC3(Br)Br)c2)cc1 (stereo not given) | inactive: 27.6% |
| COc1ccc(CNCC(O)(c2ccc(F)cc2)c2ccc(F)cc2)cc1OC | inconclusive: -58.7% |
| CC(=O)Nc1ccc(SCC(=O)Nc2sccc2C#N)cc1 | inactive: 0% |
| COc1cccc(N2C(=O)C(c3ccccc3)=C(c3nc4ccccc4s3)C2NC(C)=O)c1 (stereo not given) | inconclusive: -47.2% |
| CN1/C(=C\C(=O)c2cccnc2)C(C)(C)c2ccccc21 | inactive: -1.75% |
| CCOC(=O)c1ccccc1NC(=O)CCc1nc(-c2ccc(C)cc2)no1 | inconclusive: -57.8% |
| COC(=O)c1ccc(/C=N/NC(=S)NC(C)C)cc1 | inconclusive: -42.3% |
| COc1ccc(/C=N/Nc2cc(C)nc3ccc(Br)cc23)cc1 | active: -98.1% |
| COc1ccc(C(CNC(=O)COc2cc(C)cc(C)c2)N2CCOCC2)cc1 (stereo not given) | inconclusive: -43.3% |
| COc1ccc(NC(=O)c2ccc(S(=O)(=O)N(C)c3ccccc3)cc2)cn1 | active: -61.6% |
| O=C(CSc1cn(CC(=O)N2CCCC2)c2ccccc12)NCC1CCCO1 (stereo not given) | inconclusive: -47.6% |
| COc1ccc(-c2cn(/N=C/c3ccc(Cl)cc3Cl)c(N)n2)cc1 | inconclusive: -57.2% |
| Cc1ccc(NC(=O)C2CCN(S(=O)(=O)c3cc(-c4noc(C)n4)ccc3C)CC2)c(C)c1 | inconclusive: -46.7% |
| O=C(NCc1ccc(Cl)cc1)C1CCN(c2cnccn2)CC1 | inconclusive: -57.6% |
| O=C(Nc1ccccc1N1CCOCC1)c1cc(-c2ccncc2)nc2ccccc12 | inactive: -20.9% |
| COC(=O)C1=C(c2ccc(C(C)=O)cc2)C[C@@H]2CC[C@H]1N2C(=O)NCc1ccc2c(c1)OCO2 | inactive: -8.79% |
| COc1cccc(C(=O)Oc2c(Br)cc(Br)cc2/C=N/NC(=O)c2cc(C)[nH]n2)c1 | active: -96.8% |
| COc1ccc(NC(=O)C(NC(=O)/C=C\c2ccc3c(c2)OCO3)c2ccccc2)cc1 (stereo not given) | inconclusive: -56.6% |

| Structure (SMILES) | activity change, negative = inhibition |
| --- | --- |
| Cn1ncc2c(Sc3ccc(Cl)cc3)ncnc21 | inconclusive: -41.7% |
| COc1ccccc1S(=O)Cc1ccc(C(=O)NCc2ccccc2Cl)o1 (stereo not given) | inconclusive: -44.8% |
| CCOc1ccccc1NC(=O)CCNS(=O)(=O)c1ccc2[nH]c(=O)oc2c1 | inconclusive: -40.8% |
| O=c1c2c3c(sc2ncn1/N=C/c1ccccc1)CCCC3 | inactive: 6.28% |
| Cc1nnc(NC(=O)CSc2nccn2-c2ccc(F)cc2)s1 | inactive: 56.9% |
| COc1ccccc1OCC(=O)Nc1ccccc1C(=O)N1CCCC1 | inconclusive: -47.3% |
| CCC(C)[C@H](NC(=O)C1CC(=O)N(c2ccc3c(c2)OCO3)C1)C(=O)NC1CCCCC1 (stereo not given in full) | inconclusive: -45.9% |
| C/C(CC(=O)N(C(C)C)C(C)C)=N\NC(=O)COc1ccc(Cl)cc1Cl | inconclusive: -42.9% |
| Cc1cc([N+](=O)[O-])ccc1NC(=O)c1ccc(NC(=O)C(C)C)cc1 | inconclusive: -46.6% |
| CCS(=O)(=O)N1CCN(C(=O)c2ccccc2[N+](=O)[O-])CC1 | inconclusive: -42.6% |
| COCCN(CCOC)c1ncnc2c1c(-c1ccccc1)cn2-c1ccc(C)c(Cl)c1 | inconclusive: -46.6% |
| CCc1n[nH]c(=O)n1Cn1c(CC)n[nH]c1=O | inactive: 20.6% |
| Cc1ccc(C)c(S(=O)(=O)N2CCCC2CNC(=O)C(=O)NCc2ccccn2)c1 (stereo not given) | inconclusive: -44.1% |
| O=C(c1ccc2c(c1)N(Cc1ccc(F)cc1)CCS2)N1CCC2(CC1)OCCO2 | inconclusive: -40.1% |
| O=C1CCCN1Cc1ccccc1 | inconclusive: -44.4% |
| Cc1ccccc1C(=O)c1cccn1CC(=O)NCc1cccc(Cl)c1 | inactive: 17.4% and inactive: -2.76% |
| CN(C)CCCNc1ncnc2sc(-c3ccccc3)cc12 | inactive: -6.3% |
| CN(C)CCNc1c2c(nc3ccccc13)CCC2 | inactive: -36.2% |
| Cc1ccccc1C(=O)Nc1cccc(NC(=O)Cn2cnc3c(=O)n(C)c(=O)n(C)c32)c1 | active: -64.1% |
| Cc1cc(N2CCCC2=O)cc(C)c1S(=O)(=O)NCCOc1ccccc1 | active: -77.3% |
| Cc1ccc(-c2nnc(OCc3cccnc3)c3ccccc23)cc1 | inconclusive: -58.1% |
| CC(C)c1ccc(S(=O)(=O)N2CCN(CC(=O)c3ccc(O)c(O)c3)CC2)cc1 | inactive: -36.3% |

| Structure (SMILES) | activity change, negative = inhibition |
| --- | --- |
| CCn1ncc(S(=O)(=O)N2CCN(c3cccc(OC)c3)CC2)c1C | inconclusive: -40.7% |
| CCOC(=O)C1=C(C)N(CCCC(=O)O)C(=O)NC1c1ccccc1OS(=O)(=O)c1ccc([N+](=O)[O-])cc1 (stereo not given) | active: -100% |
| COc1ccc(C2=NOC(C(=O)Nc3ccc4c(c3)OCCO4)C2)cc1OC (stereo not given) | inconclusive: -55.6% |
| CCOC(=O)C1=C(C)N(C)C(=S)NC1c1ccc(Cl)cc1 (stereo not given) | inconclusive: -53% |
| O=[N+]([O-])c1cc2c(cc1Br)-c1ccccc1C2 | inactive: -20.7% |
| Clc1ccc(SCCCN2CCCCC2)cc1 | inconclusive: -46.9% |
| Cc1ccc(C(=O)C[n+]2cc(-c3ccc(C)cc3)n3c2CCCCC3)cc1 | active: -102% |
| Cc1onc(-c2c(Cl)cccc2Cl)c1CO/N=C(\C#N)c1c(Cl)cccc1Cl | inconclusive: -46.3% |
| O=C(Nc1ccc(-c2csc(Nc3cccc(C(F)(F)F)c3)n2)cc1)c1cc([N+](=O)[O-])cc(C(F)(F)F)c1 | active: -78.3% |
| COc1cccc2c(=O)c3cccc(N)c3[nH]c12 | inactive: -30% |
| CN(C)S(=O)(=O)c1ccc(C(=O)Nc2ccc(CCC(=O)N3CCCC3)cc2)cc1 | inactive: -20.5% |
| CCN(Cc1ccccc1)C(=O)c1cccc(S(=O)(=O)N2CCN(c3ccc(F)cc3)CC2)c1 | inconclusive: -46.6% |
| Cc1ccc2nc3c(c(Nc4ccc(O)cc4)c2c1)CCC3 | inconclusive: -50.8% |
| CC(O)c1nc2ccc(C(=O)O)cc2[nH]1 (stereo not given) | inactive: -25.6% |
| CCN1CCc2c(sc(NC(=S)NC(=O)c3ccc(Cl)cc3)c2C(N)=O)C1 | inactive: 35.3% |
| CCCn1nc(C(=O)N2CCN(S(=O)(=O)c3ccc(C)c(C)c3)CC2)c2ccccc2c1=O | inactive: -10.7% |
| COC(=O)C1(C(=O)OC)C[C@H](c2ccc(OC)cc2)N(Cc2ccccc2OC)[C@@H]1c1cccs1 | inconclusive: -40.6% |
| CNS(=O)(=O)c1cccc(C(=O)OCC(=O)/C=C2/N(C)c3ccccc3C2(C)C)c1 | inconclusive: -57.2% |
| COc1ccc(/C=C/C2=CC(C)(C)NC(=S)N2)cc1OC | inconclusive: -58.1% |

Individual results from the list:
Entry of CN(C)S(=O)(=O)c1ccc(C(=O)Nc2ccc(CCC(=O)N3CCCC3)cc2)cc1 under activity change, negative = inhibition: inactive: -20.5%
Entry of O=[N+]([O-])c1cc2c(cc1Br)-c1ccccc1C2 under activity change, negative = inhibition: inactive: -20.7%
Entry of CNS(=O)(=O)c1cccc(C(=O)OCC(=O)/C=C2/N(C)c3ccccc3C2(C)C)c1 under activity change, negative = inhibition: inconclusive: -57.2%
